Reference: PubChem BioAssay AID1259425 (University of Nebraska Medical Center, 2018)

Purpose: 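Find knockdowns that reproduce the gene expression pattern seen when KSR1 is lost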 (primary screen)
Cells: HCT116 human colon cancer cells
Reagent: siRNA pool against human genes, 50 nM siRNA
Measured: 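After 50 nM siRNA pool, branched-DNA assay measures six marker transcripts per well, minus blank, normalised to the geometric mean of two housekeeping transcripts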
Scale: BNIP3L mRNA: higher = more BNIP3L transcript after knockdown; NDRG1 mRNA: higher = more NDRG1 transcript after knockdown; BNIP3 mRNA: higher = more BNIP3 transcript after knockdown; ALDOC mRNA: higher = more ALDOC transcript after knockdown; ACSL5 mRNA: higher = more ACSL5 transcript after knockdown
Here is one part, drawn at random, of about 14,000 reagents. The record does not give: the time to read-out.

target gene | PubChem SID | BNIP3L mRNA, set 1 | NDRG1 mRNA, set 1 | BNIP3 mRNA, set 1 | ALDOC mRNA, set 1 | ACSL5 mRNA, set 1
KCNJ9 | SID363995923 | 0.0834 | 0.124 | 0.459 | 0.0376 | 0.0679
GABRR2 | SID363993253 | 0.0459 | 0.49 | 0.22 | 0.0123 | 0.172
IGF2R | SID363992163 | 0.0772 | 0.451 | 0.186 | 0.0356 | 0.154
AMELX | SID363992434 | 0.132 | 0.0922 | 0.384 | 0.0189 | 0.121
BCL2L2 | SID363995060 | 0.0685 | 0.225 | 0.283 | 0.0147 | 0.248
INSM2 | SID364004082 | 0.0606 | 0.244 | 0.275 | 0.0131 | 0.208
MESP1 | SID364001169 | 0.0908 | 0.259 | 0.326 | 0.00904 | 0.13
ZNF777 | SID363999653 | 0.0371 | 0.145 | 0.19 | 0.0372 | 0.117
MC1R | SID363993566 | 0.252 | 0.238 | 0.413 | 0.0456 | 0.157
STUB1 | SID363996735 | 0.0981 | 0.0839 | 0.423 | 0.0295 | 0.0971
SLC25A37 | SID364000236 | 0.0568 | 0.342 | 0.269 | 0.0104 | 0.269
KLHL24 | SID364000414 | 0.11 | 0.129 | 0.252 | 0.0308 | 0.0851
SCAND1 | SID364000193 | 0.137 | 0.322 | 0.289 | 0.00863 | 0.261
ODC1 | SID363993710 | 0.0447 | 0.179 | 0.192 | 0.0122 | 0.145
EPHB1 | SID363995423 | 0.0605 | 0.103 | 0.177 | 0.00571 | 0.197
UXT | SID363995186 | 0.0718 | 0.0877 | 0.3 | 0.0088 | 0.234
PMCH | SID363993840 | 0.12 | 0.257 | 0.277 | 0.0222 | 0.207
IGHV5-78 | SID364004876 | 0.108 | 0.705 | 0.336 | 0.0266 | 0.144
CRYBB3 | SID363995086 | 0.0704 | 0.224 | 0.236 | 0.0257 | 0.198
CPT1B | SID363995362 | 0.112 | 0.109 | 0.245 | 0.021 | 0.132
PARM1 | SID363999464 | 0.159 | 0.0791 | 0.274 | 0.014 | 0.136
SURF1 | SID363994308 | 0.057 | 0.134 | 0.368 | 0.0213 | 0.0952
FRS2 | SID363997441 | 0.104 | 0.311 | 0.259 | 0.0124 | 0.278
OTOR | SID364001516 | 0.143 | 0.344 | 0.307 | 0.0182 | 0.211
SDHA | SID363995172 | 0.108 | 0.103 | 0.177 | 0.0158 | 0.122
MRI1 | SID364003873 | 0.347 | 0.326 | 0.422 | 0.177 | 0.564
KLRK1 | SID363998002 | 0.11 | 0.19 | 0.36 | 0.019 | 0.21
RIPK4 | SID364001743 | 0.136 | 0.187 | 0.279 | 0.0126 | 0.363
POLR3K | SID364000026 | 0.0729 | 0.169 | 0.263 | 0.0215 | 0.231
P2RY1 | SID363993732 | 0.115 | 0.26 | 0.275 | 0.0447 | 0.175
NPEPPS | SID363997132 | 0.0826 | 0.0709 | 0.234 | 0.0209 | 0.207
VAMP4 | SID363994828 | 0.231 | 0.362 | 0.361 | 0.0521 | 0.24
TCTN1 | SID364002864 | 0.199 | 0.217 | 0.296 | 0.024 | 0.209
RADIL | SID364000747 | 0.13 | 0.109 | 0.348 | 0.0114 | 0.0634
RCAN2 | SID363996697 | 0.148 | 0.71 | 0.342 | 0.0768 | 0.228
PNMA1 | SID363996880 | 0.101 | 0.109 | 0.256 | 0.0166 | 0.163
RELA | SID364002264 | 0.0899 | 0.225 | 0.224 | 0.023 | 0.217
IL17RA | SID363998767 | 0.215 | 0.219 | 0.251 | 0.0621 | 0.127
ALDH3A1 | SID363991990 | 0.12 | 0.205 | 0.293 | 0.00943 | 0.149
TRIB2 | SID364002165 | 0.104 | 0.426 | 0.353 | 0.00427 | 0.309
ARHGAP44 | SID363999150 | 0.13 | 0.205 | 0.319 | 0.0252 | 0.264
KEL | SID363991751 | 0.173 | 0.152 | 0.311 | 0.0256 | 0.0847
SMARCA2 | SID363994215 | 0.0752 | 0.0767 | 0.238 | 0.0165 | 0.128
BAHD1 | SID363999220 | 0.197 | 0.111 | 0.278 | 0.0164 | 0.0808
TMEM53 | SID364002892 | 0.133 | 0.177 | 0.23 | 0.00498 | 0.438
TXNDC16 | SID364005238 | 0.0977 | 0.108 | 0.202 | 0.0195 | 0.336
HSPA9 | SID363995144 | 0.172 | 0.0697 | 0.258 | 0.0109 | 0.211
DNAJB11 | SID364000023 | 0.0614 | 0.0955 | 0.201 | 0.013 | 0.184
CENPU | SID364002928 | 0.121 | 0.229 | 0.24 | 0.0287 | 0.234
COL4A2 | SID363993060 | 0.114 | 0.242 | 0.266 | 0.0566 | 0.147

Copied from the list.
Entry for STUB1 [SID363996735] in “NDRG1 mRNA, set 1”: 0.0839
For “BNIP3 mRNA, set 1”, TMEM53 [SID364002892] has 0.23
SLC25A37 [SID364000236], ALDOC mRNA, set 1: 0.0104
